Laboratory results: paper PMC10111864
No constants are given. Whether binding was seen depends on the method and setting. Binding seen in cells or lysates may run through a third protein. A yes stands for co-enrichment or nearness to the bait. Other partners may have been found. Tags and fused reporters may be left off the sequences shown.

T1: KIF1C (endogenous, untagged) (mouse (endogenous in YUMM1.7)) (UniProt O35071)
T1 sequence: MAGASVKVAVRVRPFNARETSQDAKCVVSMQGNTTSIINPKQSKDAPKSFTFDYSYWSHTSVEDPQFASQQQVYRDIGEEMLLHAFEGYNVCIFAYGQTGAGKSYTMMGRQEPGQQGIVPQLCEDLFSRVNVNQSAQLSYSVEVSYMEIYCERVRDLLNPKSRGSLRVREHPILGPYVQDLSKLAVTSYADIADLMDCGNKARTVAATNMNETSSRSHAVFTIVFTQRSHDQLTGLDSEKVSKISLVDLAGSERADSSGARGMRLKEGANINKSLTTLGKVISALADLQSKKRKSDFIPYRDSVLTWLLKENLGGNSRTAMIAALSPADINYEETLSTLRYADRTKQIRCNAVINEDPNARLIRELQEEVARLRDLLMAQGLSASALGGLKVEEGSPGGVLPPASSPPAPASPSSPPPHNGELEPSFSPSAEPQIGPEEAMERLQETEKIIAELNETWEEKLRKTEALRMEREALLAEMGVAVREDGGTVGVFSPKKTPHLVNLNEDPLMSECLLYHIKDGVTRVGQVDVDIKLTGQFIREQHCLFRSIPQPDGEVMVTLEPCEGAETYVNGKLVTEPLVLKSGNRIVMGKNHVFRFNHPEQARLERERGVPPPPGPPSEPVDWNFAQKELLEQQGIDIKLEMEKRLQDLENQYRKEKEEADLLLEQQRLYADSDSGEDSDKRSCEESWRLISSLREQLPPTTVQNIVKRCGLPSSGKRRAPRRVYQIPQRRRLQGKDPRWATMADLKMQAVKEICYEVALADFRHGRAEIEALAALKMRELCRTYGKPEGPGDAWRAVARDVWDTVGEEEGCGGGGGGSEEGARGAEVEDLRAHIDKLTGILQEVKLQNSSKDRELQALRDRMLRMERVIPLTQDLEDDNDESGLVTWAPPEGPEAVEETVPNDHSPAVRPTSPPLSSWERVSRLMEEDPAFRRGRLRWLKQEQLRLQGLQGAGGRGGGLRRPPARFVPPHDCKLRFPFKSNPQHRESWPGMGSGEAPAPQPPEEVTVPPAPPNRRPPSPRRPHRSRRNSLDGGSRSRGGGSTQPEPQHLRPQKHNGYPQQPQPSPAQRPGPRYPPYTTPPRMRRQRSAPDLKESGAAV


target: T1, KIF1C (endogenous, untagged) (mouse (endogenous in YUMM1.7)); experiment: affinity purification with mass spectrometry; IP of endogenous KIF1C with α-KIF1C antibody (Bethyl A301-072A) and protein G Dynabeads from lysates of Kif1c+/+ and Kif1c ΔGA1,2 YUMM1.7 cells, Kif1c LOF cells as negative control; 4.5-5 mg total protein; washes 50 mM Tris pH 7.4, 150 mM NaCl, 0.02% NP-40; hits more than threefold enriched over …

| binding | Binder |
| --- | --- |
| binds | FLII (protein, UniProt Q9JJ28 1-1271) MEATGVLPFVRGVDLSGNDFKGGYFPENVKAMTSLRWLKLNRTGLCYLPEELAALQKLEHLSVSHNHLTTLHGELSSLPSLRAIVARANSLKNSGVPDDIFKLDDLSVLDLSHNQLTECPRELENAKNMLVLNLSHNGIDSIPNQLFINLTDLLYLDLSENRLESLPPQMRRLVHLQTLVLNGNPLLHAQLRQLPAMMALQTLHLRNTQRTQSNLPTSLEGLSNLSDVDLSCNDLTRVPECLYTLPSLRRLNLSSNQIAELSLCIDQWVHLETLNLSRNQLTSLPSAICKLTKLKKLYLNSNKLDFDGLPSGIGKLTSLEEFMAANNNLELIPESLCRCPKLKKLVLNKNRLVTLPEAIHFLTEIQVLDVRENPSLVMPPKPADRTAEWYNIDFSLQNQLRLAGASPATVAAAAAVGSGSKDPLARKMRLRRRKDSAQDVQAKQVLKGMSDVAQEKNKNQEESIDARAPGGKVRRWDQGLEKPRLDYSEFFTEDVGQLPGLTIWQIENFVPVLVEEAFHGKFYEADCYIVLKTFLDDSGSLNWEIYYWIGGEATLDKKACSAIHAVNLRNYLGAECRTVREEMGDESEEFLQVFDNDISYIEGGTASGFYTVEDTHYVTRMYRVYGKKNIKLEPVPLKGSSLDPRFVFLLDQGLDIYVWRGAQATLSNTTKARLFAEKINKNERKGKAEITLLVQGQEPPGFWDVLGGEPSEIKNHVPDDFWPPQPKLYKVGLGLGYLELPQINYKLSVEHKKRPKVELMPGMRLLQSLLDTRCVYILDCWSDVFIWLGRKSPRLVRAAALKLGQELCGMLHRPRHTVVSRSLEGTEAQVFKAKFKNWDDVLTVDYTRNAEAVLQGQGLSGKVKRDTEKTDQMKADLTALFLPRQPPMPLAEAEQLMEEWNEDLDGMEGFVLEGRKFTRLPEEEFGHFYTQDCYVFLCRYWVPVEYEEEEKTEDKEGKASAEAREGEEAAAEAEEKQPEEDFQCIVYFWQGREASNMGWLTFTFSLQKKFESLFPGKLEVVRMTQQQENPKFLSHFKRKFIIHRGKRKVTQGTLQPTLYQIRTNGSALCTRCIQINTDSSLLNSEFCFILKVPFESEDNQGIVYAWVGRASDPDEAKLAEDILNTMFDASYSKQVINEGEEPENFFWVGIGAQKPYDDDAEYMKHTRLFRCSNEKGYFAVTEKCSDFCQDDLADDDIMLLDNGQEVYMWVGTQTSQVEIKLSLKACQVYIQHTRSKEHERPRRLRLVRKGNEQRAFTRCFHAWSTFRQAPA |
| binds | ATL3 (protein, UniProt Q91YH5 1-541) MLSPQRTAAVASRGAGDAMENGKPGPVQVVLVHKEQHSFELEERALASVLLQDHIRDLDVVVVSVAGAFRKGKSFILDFMLRYLYSQKEGGHSDWLGDPEEPLTGFSWRGGSDPETTGIQIWSEVFTVKKPCGKKVAVVLMDTQGAFDSQSTVKDCATIFALSTMTSSVQIYNLSQNIQEDDLQQLQLFTEYGRLAMDEIFQKPFQTLMFLIRDWSFPYEYNYGLQGGMAFLDKRLHVKEHQHEEIQNVRNHIHSCFSDVTCFLLPHPGLQVATSPNFDGKLKDIASEFKEQLQALIPYVLNPSKLMEKEINGSKVTCRGLLEYFKAYIKIYQGEDLPHPKSMLQATAEANNLAAAASAKDIYYNNMEEICGGEKPYLSPDILEEKHLEFKQLALDHFKKIKKMGGKDFSFRYQQELEEEIKELYENFCKHNGSKNVFSTFRTPAVLFTGIAALYIASGFTGFIGLEVVAQLFNCMVGLLLIALLTWGYIRYSGQYRELGGAIDSGAAYVLEQASSHIGNSTQAAVRDAVVGRPPADKKSQ |
| binds | RAI14 (protein, UniProt Q9EP71 1-979) MKSLKAKFRKSDTNEWNKNDDRLLQAVENGDAEKVASLLGKKGASATKHDSEGKTAFHLAAAKGHVECLKVMVTHGVDVTAQDSSGHSALHVAAKNGHPECIRKLLQYKSPAENIDNSGKTALHYAAAQGCLQAVQLLCEHKSPINLKDLDGNIPLLVAVQNGHSEACHFLLDHGADVNSRDKNGRTALMLACETGSSNTVDALIKKGADLSLVDSLGHNALHYSKLSENAGIQNLLLSKISQDADLKTPTKPKQHDQVSKISSERSGTPKKRKAPPPPISPTQLSDVSSPRSITSTPLSGKESVFFAEAPFKAEISSIQENKDRLSDSTAGADSLLDISSEADQQDLLVLLQAKVASLTLHNKELQDKLQAKSPKDKEAEADLSFQSFHSTQTDLAPSPGKASDIPSSDAKSSPPVEHPAGTSTTDNDVIIRQLQDSLHDLQKRLESSEAEKKQLQDELQSQRTDTLCLNNTEISENGSDLSQKLKETQSKYEEAMKEVLSVQKQMKLGLLSQESADGYSHLREAPADEDIDTLKQDLQKAVEESARNKERVRELETKLAEKEQAEATKPPAEACEELRSSYCSVIENMNKEKAFLFEKYQQAQEEIMKLKDTLKSQMPQEAPDDSGDMKEAMNRMIDELNKQVSELSQLYREAQAELEDYRKRKSLEDAAEYIHKAEHERLMHVSNLSRAKSEEALSEMKSQYSKVLNELTQLKQLVDAHKENSVSITEHLQVITTLRTTAKEMEEKISALTGHLANKEAEVAKLEKQLAEEKAAVSDAMVPKSSYEKLQASLESEVNALATKLKESVREREKAHSEVAQVRSEVSQARREKDNIQTLLKAKEQEVTALVQKFQRAQEELAGMRRCSETSSKLEEDKDEKINEMTREVLKLKEALNSLSQLSYSTSSSKRQSQQLDLLQQQVKQLQNQLAECKKHHQEVISVYRMHLLYAVQGQMDEDVQKVLKQILTMCKNQSQKK |
